# Experimental data from patent US5726156A (Trega Biosciences, Inc., priority 1995, dated 1998).
# Assays:
# [1] = system: kidney (cyclosporine-induced nephrotoxicity); test: Cyclosporine-induced nephrotoxicity; format: in vivo, rats
# Protocol: In the first study, male Sprague-Dawley rats (n=43) with a weight range of 240-290 g at the initiation of the cyclosporine A (CsA) treatment were divided into 4 weight matched groups. The groups were as follows: (1) Control: no CsA, no EX-2, treatment only with CsA vehicle (PBS) PO and EX-2 vehicle (also PBS) IP; (2) CsA: treatment with CsA (50 mg/kg in PBS administered PO daily at 0830 hr for 9 days) and IP injections of PBS (Ex-2 vehicle); (3) CsA and 50 μg: CsA treatment identical to group 2 with the addition of EX-2 (50 μg/kg IP administered daily at 0800 and 1700 hr in EX-2 vehicle); and (4) CsA and 500 μg: CsA treatment identical to groups 2 and 3, and EX-2 treatment protocol similar to group 3 except that the dose of EX-2 was 500 μg/kg BW. After deep anesthesia was assured, the rats were cannulated in the trachea (PE 240) jugular vein, femoral artery, and bladder (PE 50 for the previous 3 cannulations).After cannulation, infusion of ^3 H-inulin was initiated 50 min prior to the measurement period to assess glomerular filtration rate, renal blood flow and plasma flow. Renal blood flow was determined by the inulin extraction technique. At the end of the study, the kidneys were removed for histological analysis.
# In the second study, male Sprague-Dawley rats (n=3l) with a weight range of 240-290 g at the time of initiation of the cyclosporine treatment were divided into 4 weight-matched groups. The time course and protocol of this study matched the first study with the following exceptions: (1) The daily dose of CsA was reduced to 30 mg/kg and was administered subcutaneously (SC) and (2) the 50 μ/kg dose of EX-2 was substituted with a twice daily dose of 200 μg/kg. The 500 μg/kg dose of EX-2 was repeated in this study. Renal hemodynamics were determined and extracellular fluid volumes were also assessed.
# In the second study, where extracellular fluid volumes (ECF) were measured, there were no differences in ECF among control and treatment groups (27.6±1.9 in control, 27.5±1.7 in CsA and vehicle, 26.2±0.9 in CsA +200 μg/kg EX-2, and 25.7±1.4% in CsA +500 μg/kg EX-2). […]
# [2] = general procedure: Boc solid-phase peptide synthesis; MBHA; dicyclohexylcarbodiimide; conditions: whole synthesis, 215 nm
# [3] = solid-phase peptide synthesis; conditions: whole synthesis, RP-HPLC, absorption at 215 nm
substance,measurement,setting,value
Ac-Nle-Gln-His-(D)Phe-Arg-(D)Trp-Gly-NH2 [EX-2],urinary protein excretion,[1]; compared to CsA-treated rats,did not increase urinary protein excretion
same,extracellular fluid volumes (ECF),[1]; second study: CsA 30 mg/kg SC + 200 μg/kg EX-2 twice daily,26.2±0.9%
same,extracellular fluid volumes (ECF),[1]; second study: CsA 30 mg/kg SC + 500 μg/kg EX-2 twice daily,25.7±1.4%
NIe-Gln-His-(D) Phe-Arg-(D)Trp-GlY,final HPLC purity,[2],97%
Nle-Gln-His-(D) Phe-Arg-(D) Trp-Gly-NH2,final HPLC purity,[3],98%
